Source: PubChem BioAssay AID1259405 (NCATS, 2018)

Screen: 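Mouse-designed siRNAs used to find CHO productivity engineering targets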 (primary screen)
System: Chinese hamster CHO-K1 ovary cells with stable secreted eGFP expression
Knock-down reagent: single siRNA against mouse genes, 0.8 pmol siRNA per well (2 µl of 400 nM stock)
Time to read-out: 3 days
Measurement: 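Per-well intracellular GFP measured by laser scanning cytometry, plus viability from ATP luminescence, each relative to plate median of non-targeting control wells, in %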
Scale: GFP, % of control: higher = more GFP per well, higher productivity; viability (ATP), % of control: higher = more viable cells (more ATP)
Rule for the call: 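Called active when intracellular GFP, relative to negative control, is at or above 120%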
The deposit covers about 50,000 reagents; this is an unselected part. In the full data, about 4,000 (8%) were called active. 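Mouse siRNA library applied to hamster cells; one well for each siRNA.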 Reagents against one gene are numbered here.

| gene | reagent | GFP, % of control | viability (ATP), % of control | outcome |
| --- | --- | --- | --- | --- |
| Or4c115 | 1 | 83.6 | 90.7 | inactive |
| Or4c115 | 2 | 68.6 | 84.4 | inactive |
| Or4c115 | 3 | 41.5 | 108 | inactive |
| Rps15 | 1 | 54 | 51.7 | inactive |
| Rps15 | 2 | 47.5 | 17.9 | inactive |
| Rps15 | 3 | 126 | 86.6 | active |
| Trmu | 1 | 85.9 | 100 | inactive |
| Trmu | 2 | 97.3 | 74.6 | inactive |
| Trmu | 3 | 136 | 83.6 | active |
| D830039M14Rik | 1 | 77.8 | 84.6 | inactive |
| D830039M14Rik | 2 | 107 | 104 | inactive |
| D830039M14Rik | 3 | 73.5 | 94.3 | inactive |
| Ntng1 | 1 | 42.2 | 34.8 | inactive |
| Ntng1 | 2 | 95.6 | 91.8 | inactive |
| Ntng1 | 3 | 79.1 | 62.2 | inactive |
| Bfsp1 | 1 | 88.9 | 68.7 | inactive |
| Bfsp1 | 2 | 98 | 97 | inactive |
| Mmp2 | 1 | 67.2 | 101 | inactive |
| Mmp2 | 2 | 55.8 | 67.1 | inactive |
| Tmem139 | 1 | 48 | 54.1 | inactive |
| Tmem139 | 2 | 149 | 97.2 | active |
| Tmem139 | 3 | 50.3 | 65.4 | inactive |
| Ucma | 1 | 71.2 | 88.7 | inactive |
| Ucma | 2 | 80 | 83 | inactive |
| Ucma | 3 | 50.8 | 51.1 | inactive |
| Wfdc13 | 1 | 71.7 | 48.6 | inactive |
| Wfdc13 | 2 | 146 | 66 | active |
| Wfdc13 | 3 | 95.2 | 92.4 | inactive |
| Sfxn2 | 1 | 99.8 | 86.4 | inactive |
| Sfxn2 | 2 | 60.2 | 77.7 | inactive |
| Sfxn2 | 3 | 147 | 68.3 | active |
| Evi2a | 1 | 45 | 68.3 | inactive |
| Evi2a | 2 | 90.1 | 75.8 | inactive |
| Evi2a | 3 | 79.8 | 82.3 | inactive |
| Nme7 | 1 | 73.3 | 62.1 | inactive |
| Capza1b | 1 | 26.9 | 47.9 | inactive |
| Capza1b | 2 | 60.4 | 75 | inactive |
| Capza1b | 3 | 61.6 | 67.5 | inactive |
| Aqp11 | 1 | 93 | 102 | inactive |
| Aqp11 | 2 | 61.6 | 66.1 | inactive |
| Nrip1 | 1 | 80.5 | 91.9 | inactive |
| Nrip1 | 2 | 248 | 134 | active |
| Nrip1 | 3 | 80.5 | 91.9 | inactive |
| Nrip1 | 4 | 61.8 | 79.7 | inactive |
| Nrip1 | 5 | 93.7 | 87 | inactive |
| Selenof | 1 | 50.8 | 65.5 | inactive |
| Selenof | 2 | 41.6 | 49.4 | inactive |
| Selenof | 3 | 61.9 | 75.6 | inactive |
| Gdf7 | 1 | 63.5 | 64.8 | inactive |
| Gdf7 | 2 | 60.3 | 29.9 | inactive |
| Gdf7 | 3 | 72.6 | 82.5 | inactive |
| Ddit4 | 1 | 65.4 | 96.1 | inactive |
| Ddit4 | 2 | 96.9 | 70.8 | inactive |
| Ddit4 | 3 | 127 | 46.2 | active |
| Eif4g1 | 1 | 45.7 | 30.7 | inactive |
| Eif4g1 | 2 | 82.1 | 71.6 | inactive |
| Eif4g1 | 3 | 106 | 72.3 | inactive |
